Measured values: publication PMC11723354
Results are given in words; binding and its absence hold for the method and conditions named. Sequences can lack the tags named with a protein.

Biological target: T1, PRR1, yeast two-hybrid fusion (UniProt Q689G9)
T1 sequence: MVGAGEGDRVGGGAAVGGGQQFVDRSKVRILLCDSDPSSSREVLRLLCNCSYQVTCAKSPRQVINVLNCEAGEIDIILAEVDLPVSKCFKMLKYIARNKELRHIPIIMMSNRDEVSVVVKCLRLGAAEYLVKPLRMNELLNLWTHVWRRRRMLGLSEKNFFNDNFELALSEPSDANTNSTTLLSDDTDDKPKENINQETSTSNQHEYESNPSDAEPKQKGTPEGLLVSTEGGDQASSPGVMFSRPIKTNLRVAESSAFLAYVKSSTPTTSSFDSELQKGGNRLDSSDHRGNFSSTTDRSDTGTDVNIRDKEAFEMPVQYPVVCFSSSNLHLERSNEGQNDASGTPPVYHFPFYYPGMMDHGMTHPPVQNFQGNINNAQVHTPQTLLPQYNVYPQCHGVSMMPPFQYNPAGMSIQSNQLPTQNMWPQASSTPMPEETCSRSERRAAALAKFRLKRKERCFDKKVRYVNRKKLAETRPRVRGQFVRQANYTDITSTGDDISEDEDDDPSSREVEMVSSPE
Experiment: two-hybrid; yeast two-hybrid, AD and BD fusions; yeast grew at 30 °C for 3 days; empty vectors as negative controls

For “Oryza sativa BBX2 (OsBBX2), yeast two-hybrid fusion (rice (Oryza sativa))”, the binding was “no binding”.
